Test results taken from publication PMC4625158.
These are yes or no findings as the source states them, for the method shown.

Amino acid sequences for entries named in this document (tags omitted). A change or cut given only in a name is not applied to a line headed by its entry.
UniProt P08168: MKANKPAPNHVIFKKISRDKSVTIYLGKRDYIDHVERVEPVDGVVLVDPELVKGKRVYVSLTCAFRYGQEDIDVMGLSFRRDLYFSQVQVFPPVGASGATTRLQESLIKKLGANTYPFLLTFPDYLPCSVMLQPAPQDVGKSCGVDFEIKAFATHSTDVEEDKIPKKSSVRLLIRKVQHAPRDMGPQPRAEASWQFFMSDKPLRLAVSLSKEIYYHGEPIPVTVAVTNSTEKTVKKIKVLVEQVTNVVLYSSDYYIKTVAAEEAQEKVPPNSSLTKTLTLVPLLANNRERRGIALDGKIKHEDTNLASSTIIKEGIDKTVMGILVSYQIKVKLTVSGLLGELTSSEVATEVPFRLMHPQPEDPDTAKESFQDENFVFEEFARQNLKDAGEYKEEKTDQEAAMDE

Molecular target: mutant arrestin R175E (bovine visual arrestin-1, aa 1-404, R175E) (bovine) (UniProt P08168)
Experiment: SAXS; small angle X-ray scattering in solution, 10 °C, 10 mM HEPES, 150 mM NaCl, pH 7.5; concentration series (arr-1: 1.9, 3.0 and 8.5 mg/mL; R175E: 0.4, 0.9 and 1.7 mg/mL; p44: 1.0, 2.0 and 4.6 mg/mL), data extrapolated to infinite dilution; both purified

With “mutant arrestin R175E (bovine visual arrestin-1, aa 1-404, R175E) (from UniProt P08168 1-404)” the binding was “no binding (tested: 0.4, 0.9 and 1.7 mg/mL)”.
